Consider 2 molecules from publication doi:10.1101/609503.

Like-named read-outs stand apart in the source and are kept apart here. Results are given in words; binding and its absence hold for the method and conditions named. In cells and extracts the contact can be indirect. These calls come from enrichment with a bait or labelling near it, and not all partners need be listed.

Test [1] concerns the target T1, NlpI (soluble version, residues 19-294) (E. coli) (UniProt P0AFB1).
T1 sequence (chain, NT647 RED-NHS dye on amines where used as the labelled partner (fl-NlpI)): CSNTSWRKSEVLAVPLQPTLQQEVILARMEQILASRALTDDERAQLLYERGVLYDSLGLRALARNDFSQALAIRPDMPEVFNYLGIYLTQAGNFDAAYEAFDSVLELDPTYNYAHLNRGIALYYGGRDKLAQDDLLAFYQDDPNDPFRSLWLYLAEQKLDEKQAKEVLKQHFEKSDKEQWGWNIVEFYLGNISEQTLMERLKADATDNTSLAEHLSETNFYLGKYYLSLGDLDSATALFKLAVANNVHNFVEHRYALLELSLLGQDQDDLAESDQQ
As to the kind of experiment: affinity purification with mass spectrometry.

Test [2] has as its target T1, NlpI (soluble version, residues 19-294) (E. coli). As to the kind of experiment: affinity purification with mass spectrometry. The source holds these as a separate data set.

B1: FtsX (endogenous, membrane extract) (protein, UniProt P0AC30 1-352)
chain: MNKRDAINHIRQFGGRLDRFRKSVGGSGDGGRNAPKRAKSSPKPVNRKTNVFNEQVRYAFHGALQDLKSKPFATFLTVMVIAISLTLPSVCYMVYKNVNQAATQYYPSPQITVYLQKTLDDDAAAGVVAQLQAEQGVEKVNYLSREDALGEFRNWSGFGGALDMLEENPLPAVAVVIPKLDFQGTESLNTLRDRITQINGIDEVRMDDSWFARLAALTGLVGRVSAMIGVLMVAAVFLVIGNSVRLSIFARRDSINVQKLIGATDGFILRPFLYGGALLGFSGALLSLILSEILVLRLSSAVAEVAQVFGTKFDINGLSFDECLLLLLVCSMIGWVAAWLATVQHLRHFTPE
In the case of B1, the binding result in test [1] and in test [2] was “binds” in each case.

B2: MltA (endogenous, membrane extract) (enzyme, UniProt P0A935 21-365)
chain: CSSKPTDRGQQYKDGKFTQPFSLVNQPDAVGAPINAGDFAEQINHIRNSSPRLYGNQSNVYNAVQEWLRAGGDTRNMRQFGIDAWQMEGADNYGNVQFTGYYTPVIQARHTRQGEFQYPIYRMPPKRGRLPSRAEIYAGALSDKYILAYSNSLMDNFIMDVQGSGYIDFGDGSPLNFFSYAGKNGHAYRSIGKVLIDRGEVKKEDMSMQAIRHWGETHSEAEVRELLEQNPSFVFFKPQSFAPVKGASAVPLVGRASVASDRSIIPPGTTLLAEVPLLDNNGKFNGQYELRLMVALDVGGAIKGQHFDIYQGIGPEAGHRAGWYNHYGRVWVLKTAPGAGNVFSG
With B2, the binding result in test [1] and in test [2] was “binds” each time.
